Results are given in words; binding and its absence hold for the method and conditions named. In cells and extracts the contact can be indirect. These calls come from enrichment with a bait or labelling near it, and not all partners need be listed.

The chains behind the UniProt entries cited, without tags or fusion partners. Residues count along the entry.
UniProt O95292, residues 7-124: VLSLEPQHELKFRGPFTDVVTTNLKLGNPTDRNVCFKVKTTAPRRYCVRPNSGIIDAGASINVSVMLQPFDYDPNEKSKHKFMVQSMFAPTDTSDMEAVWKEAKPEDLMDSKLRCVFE
UniProt Q8WYP5: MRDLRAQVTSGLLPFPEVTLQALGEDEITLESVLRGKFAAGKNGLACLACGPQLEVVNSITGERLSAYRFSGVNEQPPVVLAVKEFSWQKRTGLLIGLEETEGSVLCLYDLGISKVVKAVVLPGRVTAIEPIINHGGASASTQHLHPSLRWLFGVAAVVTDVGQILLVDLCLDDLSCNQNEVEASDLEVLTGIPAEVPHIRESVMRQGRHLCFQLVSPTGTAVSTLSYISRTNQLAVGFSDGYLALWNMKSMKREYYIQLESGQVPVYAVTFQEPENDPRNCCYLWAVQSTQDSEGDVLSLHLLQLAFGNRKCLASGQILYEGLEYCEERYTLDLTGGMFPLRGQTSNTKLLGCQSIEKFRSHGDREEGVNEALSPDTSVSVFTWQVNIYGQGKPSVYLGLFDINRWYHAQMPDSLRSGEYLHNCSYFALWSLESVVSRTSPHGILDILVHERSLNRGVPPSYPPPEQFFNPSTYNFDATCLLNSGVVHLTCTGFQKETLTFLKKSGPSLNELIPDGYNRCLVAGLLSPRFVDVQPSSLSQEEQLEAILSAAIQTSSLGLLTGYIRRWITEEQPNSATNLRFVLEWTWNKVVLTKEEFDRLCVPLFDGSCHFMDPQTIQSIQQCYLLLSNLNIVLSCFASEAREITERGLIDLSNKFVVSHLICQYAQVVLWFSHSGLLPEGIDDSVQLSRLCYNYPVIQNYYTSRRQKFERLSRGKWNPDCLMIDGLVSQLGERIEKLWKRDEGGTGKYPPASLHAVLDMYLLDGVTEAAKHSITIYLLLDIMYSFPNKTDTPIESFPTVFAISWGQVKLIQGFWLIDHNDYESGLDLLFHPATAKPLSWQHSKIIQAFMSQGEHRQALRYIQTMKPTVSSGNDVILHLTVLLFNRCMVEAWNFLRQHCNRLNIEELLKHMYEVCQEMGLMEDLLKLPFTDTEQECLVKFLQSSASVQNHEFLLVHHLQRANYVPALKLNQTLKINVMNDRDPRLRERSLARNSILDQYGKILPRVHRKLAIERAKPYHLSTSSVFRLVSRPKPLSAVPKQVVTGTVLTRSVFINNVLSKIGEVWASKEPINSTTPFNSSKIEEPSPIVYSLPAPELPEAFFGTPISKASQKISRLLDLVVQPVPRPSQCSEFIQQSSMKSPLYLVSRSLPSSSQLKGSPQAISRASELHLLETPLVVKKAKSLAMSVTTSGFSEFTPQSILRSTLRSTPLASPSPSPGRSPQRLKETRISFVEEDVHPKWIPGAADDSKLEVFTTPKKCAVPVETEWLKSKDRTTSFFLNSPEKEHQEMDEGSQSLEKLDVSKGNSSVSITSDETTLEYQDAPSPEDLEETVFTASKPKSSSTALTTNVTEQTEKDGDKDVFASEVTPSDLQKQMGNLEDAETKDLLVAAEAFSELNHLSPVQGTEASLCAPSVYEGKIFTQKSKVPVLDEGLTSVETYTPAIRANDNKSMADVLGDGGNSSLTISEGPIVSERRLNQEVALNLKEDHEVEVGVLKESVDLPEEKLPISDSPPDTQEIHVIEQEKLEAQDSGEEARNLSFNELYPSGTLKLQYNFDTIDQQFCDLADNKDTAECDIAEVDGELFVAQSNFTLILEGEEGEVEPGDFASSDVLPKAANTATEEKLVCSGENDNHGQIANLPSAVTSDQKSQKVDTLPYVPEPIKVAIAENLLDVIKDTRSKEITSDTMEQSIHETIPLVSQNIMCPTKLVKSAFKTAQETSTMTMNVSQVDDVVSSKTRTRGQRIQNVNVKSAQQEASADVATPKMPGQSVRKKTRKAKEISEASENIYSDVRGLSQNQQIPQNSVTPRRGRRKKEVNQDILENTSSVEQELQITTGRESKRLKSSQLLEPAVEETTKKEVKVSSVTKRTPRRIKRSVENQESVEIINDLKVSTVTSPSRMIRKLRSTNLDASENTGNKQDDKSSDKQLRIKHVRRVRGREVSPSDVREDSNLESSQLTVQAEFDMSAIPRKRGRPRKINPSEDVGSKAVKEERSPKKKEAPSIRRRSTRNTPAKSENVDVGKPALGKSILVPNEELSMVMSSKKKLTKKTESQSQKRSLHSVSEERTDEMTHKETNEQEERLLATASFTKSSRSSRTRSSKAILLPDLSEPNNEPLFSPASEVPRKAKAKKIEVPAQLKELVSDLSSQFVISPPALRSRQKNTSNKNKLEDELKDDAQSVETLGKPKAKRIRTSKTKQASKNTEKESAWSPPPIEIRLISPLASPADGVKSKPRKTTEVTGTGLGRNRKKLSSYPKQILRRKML

The target in the assay is GST-tagged wild type MSP-domain of VAPB (UniProt O95292). In words: affinity purification with mass spectrometry.

For the substance “ELYS (embryonic large molecule derived from yolk sac), endogenous full-length nucleoporin (from UniProt Q8WYP5 1-2266)”, the binding result is given as “binds”.

These data come from publication doi:10.1101/2023.07.03.547506.
